From patent US10869933B2, “Oligomer-phenothiazine conjugates” (Nektar Therapeutics, priority 2009, dated 2020)

Assay: in vivo
Details: rat, iv, 5 mg/kg, Brain/plasma ratio Mean

CC(C)NCC(O)COc1ccc(CC(N)=O)cc1 (stereo not shown) [Atanolol, Atenolol]
Kp at 1 h: 0.024
